# The supplement of paper PMC8728848
# Some of the results follow.
# B1: GS13814A-bth-462-26-462 (Bacteroides thetaiotaomicron) (protein)
# chain: DDRDNLMVNDQIGLLHSTYTETEIFRGMDTPYQLFVIKSGKGKQETEVSISVDETVLQSYNTDNGTSIQLLPSDCYTILQPALRLNDSDYRKAFDIKWNADRLSDLLSTGKEYGLPIQMSVVQNFISADDERLKTIIVPTIKEPYLQMDVPGMSPVTDFMPTFGDLNERELFVKIRTNYSNDEDISFQIEVDPQLVIDYNTAHGTAYKMLPESSFTVDNKGVILTGMKETFIKIKYHKKGLIPEEGTYLFGDYVLPLRITSVSKYGISPDAASKLYTVKFQPDPIDKKGWSVIDFNNCCTQDGGWYLNMGWGVESLIDNNPGTQWLCRWDVKEPLPYYFVFDMGKEYTLFRFGFANPVAPAAHVWAGTSKAGYVEASIDNENWVKLKDWTSPKIGEPNVNMDVPATQARYIRFVITDTYPTYDGLRVSLGEVYAWGM
# Experiments:
# Test in all cases: glycan array binding signal (z-score within array); higher = stronger binding
# Conditions in all cases: glycan notation: IUPAC condensed, linker removed
# [1] = target: Gal(b1-3)GlcNAc(b1-6)[Gal(b1-3)]GalNAc
# Outline: (§1)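 Glycan array data were curated from 3228 arrays in the Consortium for Functional Glycomics database and kept only where the protein sequence was available. Glycan names were converted to IUPAC-condensed notation, and columns mapping to the same glycan were averaged. The binding signal is a within-array Z-score, averaged across arrays of the same protein sequence at different concentrations or buffers and across linkers. Negative Z-scores can be read as non-binding.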
# Gal(b1-3)GlcNAc6S = target: Gal(b1-3)GlcNAc6S
# Outline: as §1
# [2] = target: Gal(b1-3)[Fuc(a1-4)]GlcNAc
# Outline: as §1
# [3] = target: Gal(b1-3)[Fuc(a1-4)]GlcNAc(b1-2)Man
# Outline: as §1
# [4] = target: Gal(b1-3)[Fuc(a1-4)]GlcNAc(b1-2)Man(a1-3)[Gal(b1-3)[Fuc(a1-4)]GlcNAc(b1-2)Man(a1-6)]Man(b1-4)GlcNAc(b1-4)[Fuc(a1-6)]GlcNAc
# Outline: as §1
# [5] = target: Gal(b1-3)[Fuc(a1-4)]GlcNAc(b1-3)Gal(b1-3)[Fuc(a1-4)]GlcNAc
# Outline: as §1
# [6] = target: Gal(b1-3)[Fuc(a1-4)]GlcNAc(b1-3)Gal(b1-4)[Fuc(a1-3)]GlcNAc
# Outline: as §1
# [7] = target: Gal(b1-3)[Fuc(a1-4)]GlcNAc(b1-6)GalNAc
# Outline: as §1
# [8] = target: Gal(b1-3)[GlcNAc(b1-6)]GalNAc
# Outline: as §1
# [9] = target: Gal(b1-3)[Neu5Ac(a2-6)]GalNAc
# Outline: as §1
# [10] = target: Gal(b1-3)[Neu5Ac(a2-6)]GlcNAc(b1-4)Gal(b1-4)Glc
# Outline: as §1
# [11] = target: Gal(b1-3)[Neu5Ac(b2-6)]GalNAc
# Outline: as §1
# Gal(b1-4)Gal = target: Gal(b1-4)Gal
# Outline: as §1
# [12] = target: Gal(b1-4)GalNAc(a1-3)[Fuc(a1-2)]Gal(b1-4)GlcNAc
# Outline: as §1
# [13] = target: Gal(b1-4)GalNAc(b1-3)[Fuc(a1-2)]Gal(b1-4)GlcNAc
# Outline: as §1
# Gal(b1-4)Glc = target: Gal(b1-4)Glc
# Outline: as §1
# Gal(b1-4)Glc6S = target: Gal(b1-4)Glc6S
# Outline: as §1
# Gal(b1-4)GlcNAc = target: Gal(b1-4)GlcNAc
# Outline: as §1
# [14] = target: Gal(b1-4)GlcNAc(a1-6)Gal(b1-4)GlcNAc
# Outline: as §1
# Gal(b1-4)GlcNAc(b1-2)Man = target: Gal(b1-4)GlcNAc(b1-2)Man
# Outline: as §1
# [15] = target: Gal(b1-4)GlcNAc(b1-2)Man(a1-3)Man(b1-4)GlcNAc(b1-4)GlcNAc
# Outline: as §1
# [16] = target: Gal(b1-4)GlcNAc(b1-2)Man(a1-3)[Gal(b1-4)GlcNAc(b1-2)Man(a1-6)]Man(b1-4)GlcNAc(b1-4)GlcNAc
# Outline: as §1
# [17] = target: Gal(b1-4)GlcNAc(b1-2)Man(a1-3)[Gal(b1-4)GlcNAc(b1-2)Man(a1-6)]Man(b1-4)GlcNAc(b1-4)[Fuc(a1-6)]GlcNAc
# Outline: as §1
# [18] = target: Gal(b1-4)GlcNAc(b1-2)Man(a1-3)[Gal(b1-4)GlcNAc(b1-2)Man(a1-6)][Gal(b1-4)GlcNAc(b1-4)]Man(b1-4)GlcNAc(b1-4)[Fuc(a1-6)]GlcNAc
# Outline: as §1
# [19] = target: Gal(b1-4)GlcNAc(b1-2)Man(a1-3)[Gal(b1-4)GlcNAc(b1-2)Man(a1-6)][GlcNAc(b1-4)]Man(b1-4)GlcNAc(b1-4)[Fuc(a1-6)]GlcNAc
# Outline: as §1
# [20] = target: Gal(b1-4)GlcNAc(b1-2)Man(a1-3)[GlcNAc(b1-2)Man(a1-6)]Man(b1-4)GlcNAc(b1-4)GlcNAc
# Outline: as §1
# [21] = target: Gal(b1-4)GlcNAc(b1-2)Man(a1-3)[GlcNAc(b1-4)][Gal(b1-4)GlcNAc(b1-2)Man(a1-6)]Man(b1-4)GlcNAc(b1-4)GlcNAc
# Outline: as §1
# [22] = target: Gal(b1-4)GlcNAc(b1-2)Man(a1-3)[Man(a1-6)]Man(b1-4)GlcNAc(b1-4)GlcNAc
# Outline: as §1
# [23] = target: Gal(b1-4)GlcNAc(b1-2)Man(a1-6)Man(b1-4)GlcNAc(b1-4)GlcNAc
# Outline: as §1
# [24] = target: Gal(b1-4)GlcNAc(b1-2)Man(a1-6)[GlcNAc(b1-2)Man(a1-3)]Man(b1-4)GlcNAc(b1-4)GlcNAc
# Outline: as §1
# [25] = target: Gal(b1-4)GlcNAc(b1-2)Man(a1-6)[Man(a1-3)]Man(b1-4)GlcNAc(b1-4)GlcNAc
# Outline: as §1
# [26] = target: Gal(b1-4)GlcNAc(b1-2)[Gal(b1-4)GlcNAc(b1-4)]Man(a1-3)[Gal(b1-4)GlcNAc(b1-2)Man(a1-6)]Man(b1-4)GlcNAc(b1-4)GlcNAc
# Outline: as §1
# [27] = target: Gal(b1-4)GlcNAc(b1-2)[Gal(b1-4)GlcNAc(b1-4)]Man(a1-3)[Gal(b1-4)GlcNAc(b1-2)[Gal(b1-4)GlcNAc(b1-6)]Man(a1-6)]Man(b1-4)GlcNAc(b1-4)GlcNAc
# Outline: as §1
# [28] = target: Gal(b1-4)GlcNAc(b1-2)[Gal(b1-4)GlcNAc(b1-4)]Man(a1-3)[GlcNAc(b1-4)][Gal(b1-4)GlcNAc(b1-2)Man(a1-6)]Man(b1-4)GlcNAc(b1-4)GlcNAc
# Outline: as §1
# [29] = target: Gal(b1-4)GlcNAc(b1-2)[Gal(b1-4)GlcNAc(b1-4)]Man(a1-3)[GlcNAc(b1-4)][Gal(b1-4)GlcNAc(b1-2)[Gal(b1-4)GlcNAc(b1-6)]Man(a1-6)]Man(b1-4)GlcNAc(b1-4)GlcNAc
# Outline: as §1
# [30] = target: Gal(b1-4)GlcNAc(b1-2)[Gal(b1-4)GlcNAc(b1-6)]Man(a1-6)[Gal(b1-4)GlcNAc(b1-2)Man(a1-3)]Man(b1-4)GlcNAc(b1-4)GlcNAc
# Outline: as §1
# [31] = target: Gal(b1-4)GlcNAc(b1-2)[Gal(b1-4)GlcNAc(b1-6)]Man(a1-6)[Gal(b1-4)GlcNAc(b1-2)Man(a1-3)]Man(b1-4)GlcNAc(b1-4)[Fuc(a1-6)]GlcNAc
# Outline: as §1
binder,measurement,setting,value
B1,glycan array binding signal (z-score),[1],-0.731
same,glycan array binding signal (z-score),Gal(b1-3)GlcNAc6S,-0.103
same,glycan array binding signal (z-score),[2],0.914
same,glycan array binding signal (z-score),[3],0.146
same,glycan array binding signal (z-score),[4],0.517
same,glycan array binding signal (z-score),[5],-0.115
same,glycan array binding signal (z-score),[6],0.434
same,glycan array binding signal (z-score),[7],0.892
same,glycan array binding signal (z-score),[8],0.276
same,glycan array binding signal (z-score),[9],0.296
same,glycan array binding signal (z-score),[10],-0.34
same,glycan array binding signal (z-score),[11],-0.165
same,glycan array binding signal (z-score),Gal(b1-4)Gal,0.445
same,glycan array binding signal (z-score),[12],-0.741
same,glycan array binding signal (z-score),[13],-0.743
same,glycan array binding signal (z-score),Gal(b1-4)Glc,-0.68
same,glycan array binding signal (z-score),Gal(b1-4)Glc6S,-0.019
same,glycan array binding signal (z-score),Gal(b1-4)GlcNAc,-0.268
same,glycan array binding signal (z-score),[14],-0.7
same,glycan array binding signal (z-score),Gal(b1-4)GlcNAc(b1-2)Man,-0.506
same,glycan array binding signal (z-score),[15],-0.455
same,glycan array binding signal (z-score),[16],-0.931
same,glycan array binding signal (z-score),[17],-0.779
same,glycan array binding signal (z-score),[18],-0.543
same,glycan array binding signal (z-score),[19],0.472
same,glycan array binding signal (z-score),[20],-1.08
same,glycan array binding signal (z-score),[21],-0.313
same,glycan array binding signal (z-score),[22],0.653
same,glycan array binding signal (z-score),[23],-0.692
same,glycan array binding signal (z-score),[24],-0.712
same,glycan array binding signal (z-score),[25],-0.951
same,glycan array binding signal (z-score),[26],-0.756
same,glycan array binding signal (z-score),[27],-0.258
same,glycan array binding signal (z-score),[28],-0.417
same,glycan array binding signal (z-score),[29],0.127
same,glycan array binding signal (z-score),[30],-0.611
same,glycan array binding signal (z-score),[31],-0.543

# Retrieved one by one from above:
binder,measurement,setting,value
B1,glycan array binding signal (z-score),[26],-0.756
same,glycan array binding signal (z-score),[1],-0.731
